# Values quoted from earlier work as cited in patent US20020041897A1, “Compositions for sustained release of antineoplastic taxanes, and methods of making and using the same” (priority 2000, published 2002).
# Details: cited from earlier work
compound,measurement,value
CC(=O)O[C@@]12CO[C@@H]1C[C@H](O)[C@@]1(C)C(=O)[C@H](O)C3=C(C)[C@@H](OC(=O)[C@H](O)[C@@H](NC(=O)OC(C)(C)C)c4ccccc4)C[C@@](O)([C@@H](OC(=O)c4ccccc4)[C@H]21)C3(C)C [docetaxel],solubility in water,poorly soluble in water
CC(=O)O[C@H]1C(=O)[C@@]2(C)[C@H]([C@H](OC(=O)c3ccccc3)[C@]3(O)C[C@H](OC(=O)[C@H](O)[C@@H](NC(=O)c4ccccc4)c4ccccc4)C(C)=C1C3(C)C)[C@]1(OC(C)=O)CO[C@@H]1C[C@@H]2O [paclitaxel],water solubility,less than 10 μg/mL
